# Measured values reported in the supplement of paper PMC5949888.
# Most values lie at the floor of the assay. Slopes are relative: functional sequences can read slightly below zero.
# Tested on: Saccharomyces cerevisiae PS128 hsf1 delta, HSF1(1-493) fusion
# Assay: growth estimate (transactivation domain function in HSF1 fusion, heat-shock survival) (a.u. (slope of normalised read count over time)); higher = stronger growth at 37°C, i.e. more transactivation activity
# Settings: library: random library
row,Substance,growth estimate
1,RDPVCWAK,< -0.25
2,RDQANPDLQGKLLS,< -0.25
3,RDQTFIKSLPGSKHARAHTR,< -0.25
4,RDRAIPLRVPNSPWTAE,< -0.25
5,RDRGNEPALSVEEDGEQWYR,< -0.25
6,RDRLKTDAIRSPGSFASLVH,< -0.25
7,RDRLWDWPDAYTSQDGMQVC,< -0.25
8,RDRNGFRVRV,< -0.25
9,RDRPWLGSPLNPNRQEDY,< -0.25
10,RDRTAPLDSIGVRPGGLTVA,< -0.25
11,RDRTLSSSGRLYIVIRDRGA,< -0.25
12,RDSIQPHWSFSVSQRIWTRG,< -0.25
13,RDSSNGPYV,< -0.25
14,RDVELRGGILPRWHSYEAIW,< -0.25
15,RDVMRSNFLKCGTTNRVG,< -0.25
16,RDVTRPGCGTLIPGFVAVPV,< -0.25
17,RDWFGYRML,< -0.25
18,RDWVKGMARCGHAWAGYLKG,< -0.25
19,REAAMYVPCGEAYGEEREVA,< -0.25
20,REAANWLSRSAEGINDDAVR,< -0.25
21,REARSSLVVKGVGPRWVETL,< -0.25
22,RECRQLS,< -0.25
23,RECWVLLKEWGVLRDRA,< -0.25
24,REDSPRRSGHLMDVYIVHCA,< -0.25
25,REEPCVY,-0.25

row,Substance,growth estimate
1,REEPLRSSGRALGTVLYGCR,< -0.25
2,REGLRRSTELRARCPSCDSR,< -0.25
3,REGWVL,< -0.25
4,REHGH,< -0.25
5,REHLYETSAD,< -0.25
6,REHMAGDAVEIFGHTTGSIP,< -0.25
7,REIHLP,< -0.25
8,REIRTIGSGRL,< -0.25
9,REIVYRRIGITRRPNIG,< -0.253
10,REKFSPVRFLGPGSLSRTAG,< -0.25
11,REKWGRS,< -0.25
12,RELEKRVILRLTPG,< -0.25
13,RELLQVSLFTARFQ,-0.246
14,RELWELDCAVNPGPLPLKRR,< -0.25
15,REMRLRPGPVQGWAPLNTVW,< -0.25
16,RENSILRWARPKLFSILTLY,< -0.25
17,REPGLDRHRGKDETSSVARF,< -0.25
18,REPIISEKTALVHNTQSNTD,< -0.25
19,REPNRRRSCTVDVFHAVFPP,< -0.25
20,RERAKGRVKPGS,-0.243
21,RERCMKATARRLWHRQSGVG,< -0.25
22,RERE,< -0.25
23,RERGAKTDALLIKRGPTVRY,< -0.25
24,RERSDYGVISHGSRNNADTP,< -0.25
25,RESIRFTPVSGGLPPMRRML,< -0.25

row,Substance,growth estimate
1,RET,< -0.25
2,RETISVKMGAGAEEENGADF,< -0.25
3,RETPISTVVLNYSGRFRMLE,< -0.25
4,RETWLT,< -0.25
5,REVLSVQDYYRGGGEENSDD,-0.215
6,REVRPALASYG,< -0.25
7,REVTRAWGRIGDLSANVLKS,< -0.25
8,REVV,< -0.25
9,REYERSGALVSVTRLIHLDW,< -0.25
10,REYHAGNDVLKRQCKLLEAR,< -0.25
11,REYRLVRCDLRTVCHTVNSA,< -0.25
12,RFALYGCLYALSN,< -0.25
13,RFCNQSGPCTLDRYNIPSCG,< -0.25
14,RFDDRLL,< -0.25
15,RFDGLWFRYRPRFPLTRRVK,-0.0337
16,RFDNISRQRAFFNPGKISVP,< -0.25
17,RFDWP,-0.245
18,RFECRLRRLCNCLITSVLGC,< -0.25
19,RFELLSP,< -0.25
20,RFEVEALATSHICRGA,< -0.25
21,RFGGAYGGNA,< -0.25
22,RFGGRRRPTRCRRKTSDVHA,< -0.25
23,RFGQCLIGHRGIFAGGPIIA,< -0.25
24,RFGSCWFRPLDVCFRYALGF,< -0.25
25,RFHRQPARRIRCARP,< -0.25

# Reprinted at random: six entries already listed
row,Substance,growth estimate
18,RDWVKGMARCGHAWAGYLKG,< -0.25
12,RFALYGCLYALSN,< -0.25
8,RDRNGFRVRV,< -0.25
24,RFGSCWFRPLDVCFRYALGF,< -0.25
21,RERCMKATARRLWHRQSGVG,< -0.25
13,RFCNQSGPCTLDRYNIPSCG,< -0.25

# Three entries from above, with bars between the fields.
row | Substance | growth estimate
1 | RDPVCWAK | < -0.25
2 | RDQANPDLQGKLLS | < -0.25
3 | RDQTFIKSLPGSKHARAHTR | < -0.25

# (further entries)

row,Substance,growth estimate
1,RFIFQYMRYCWVYRSVESH,< -0.25
2,RFISQGNGFKRCNRWIQDTR,< -0.25
3,RFKY,< -0.25
4,RFL,< -0.25
5,RFLARRHYTSIALGSLVPRP,< -0.25
6,RFLGGTQ,< -0.25
7,RFLHLLVDLEVDYWKRTFDN,< -0.25
8,RFLTTSITPDAHSSFLCDIA,< -0.25
9,RFMDRRR,< -0.25
10,RFMGESFI,< -0.25
11,RFMNR,< -0.25
12,RFMRNTVSFTHAIALSNSVV,< -0.25
13,RFNIDETKELRLELLNTG,< -0.25
14,RFNRSRGGYQNGGPCL,< -0.25
15,RFNVSEGRRVANVEHGGSNS,< -0.25
16,RFNYSWPAIVVGGHQYGAQC,< -0.25
17,RFPLSHKLCAY,< -0.25
18,RFPTGTCEM,< -0.25
19,RFQFAKLRISVWALCQSKQQ,< -0.25
20,RFQV,< -0.25
21,RFR,< -0.25
22,RFRRREALRTHQRIDVFSQN,< -0.25
23,RFRTCRHVRPFKMFRLLQVW,< -0.25
24,RFSKWAVGRRLYFGCLARSP,< -0.25
25,RFSPANHVRYFYSPGRDLHA,< -0.25

row,Substance,growth estimate
1,RFTDEVPCYGHCG,< -0.25
2,RFTLNRVVRIMVTCVSF,< -0.25
3,RFTSTAGHNLIRVERTVTAA,< -0.25
4,RFVCLSILRELDCSMCSRAM,< -0.25
5,RFVKKRATDGVRLRQIQSSH,< -0.25
6,RGAACVACTRSFGGYIR,< -0.25
7,RGAARAQAGRGMITYAWHVA,< -0.25
8,RGAGISTPSASKVLSSYNGK,< -0.25
9,RGAIGAALHCSKRTREGYAL,< -0.25
10,RGALFNAILIRLDFAFSPTE,< -0.25
11,RGANIHH,< -0.25
12,RGARLLGHR,< -0.25
13,RGCI,< -0.25
14,RGCLIATYVSRYVYWK,< -0.25
15,RGCMWIVCGLVALPFKYCD,< -0.25
16,RGCNIGIDFLVSPYAPVPT,< -0.25
17,RGCPLVQSWDSQSMQ,< -0.25
18,RGCRA,< -0.25
19,RGDGPICKGRWPNDSRRGNK,< -0.25
20,RGDVTGLANRRVLNLCRNRP,< -0.25
21,RGDWGRTNSRTRGSSERKKC,< -0.25
22,RGECTRDLV,< -0.25
23,RGEGYVVTTPSGSGPWRGAL,< -0.25
24,RGEIVPNIAA,< -0.25
25,RGEQSDL,< -0.25

row,Substance,growth estimate
1,RGESTNRVPFRRVARASQPS,< -0.25
2,RGFPRVHESGPVFTSARRSW,< -0.25
3,RGFSGTLS,< -0.25
4,RGFVCRMQCWNKPGRRRREV,< -0.25
5,RGFWACVFMCHASDTLRGST,< -0.25
6,RGGAECYGVQGSGFIGGFF,-0.246
7,RGGATAPELVLEMQSSSLGD,< -0.25
8,RGGAVCAWKERTKRLYTCST,< -0.25
9,RGGCLRWSDHRHSYVKDFQR,< -0.25
10,RGGEPSCRASLPVCMTKNPG,< -0.25
11,RGGLSSGSDTPPWLVPVGHE,< -0.25
12,RGGQRAVMYRCSSVVAADQI,-0.246
13,RGGQSYGIVHIRWRLYMISE,< -0.25
14,RGGRLKSAGLERSSTVDLPM,< -0.25
15,RGGRRTFPAFVFRVTNRSEC,< -0.25
16,RGGSSFSAETVTPLGYGRLT,< -0.25
17,RGGWVLTRRTCAVMCVFLSI,1.05
18,RGHG,< -0.25
19,RGHGARMAAV,< -0.25
20,RGHIRGS,< -0.25
21,RGIHFLIQSTGVAAWERGAT,-0.236
22,RGIYFPSMSMIGAKWRRILG,< -0.25
23,RGKRERRT,< -0.25
24,RGKYVSCAASD,< -0.25
25,RGLATHFTDSTHGSCRQ,-0.245

row,Substance,growth estimate
1,RGLHLWRRCADTRSHRSPPR,< -0.25
2,RGLLRDLCTYRCQSPPSPRP,< -0.25
3,RGLNLSSGIGCGDIDRWSLE,< -0.25
4,RGLNYIVRLVLVFASA,< -0.25
5,RGLRASDC,< -0.25
6,RGLSHTFNGSFSVEAGNPVR,< -0.25
7,RGLVGNLCKLSESGRDGITV,< -0.25
8,RGMGPQFSFVA,< -0.25
9,RGMLKGDRSVWGSMVVLVGT,< -0.25
10,RGMTLGVLTRYYDVR,< -0.25
11,RGNGLFWFVLPIL,-0.24
12,RGPGS,< -0.25
13,RGPKA,< -0.25
14,RGPLPFSLSGNVRFDCPVHT,< -0.25
15,RGQATGPELHRGGKSTSKIP,< -0.25
16,RGRAHGRHPLRYALICQGAM,< -0.25
17,RGRGRFQLLSLFMFLVLCYA,< -0.25
18,RGRGTSLCQDRELFPRKFLG,< -0.25
19,RGRNVMVP,0.117
20,RGRTRLSSLYIEGPAPSRVV,< -0.25
21,RGRVTASRSPNRMRDMDTLV,< -0.25
22,RGRYTL,< -0.25
23,RGSDGGALATKEG,< -0.25
24,RGSESIINVLTSPAQKPKRA,< -0.25
25,RGSPKHATQWSMRVRTGGPA,-0.243

row,Substance,growth estimate
1,RGSRRGRLPPSL,< -0.25
2,RGSVRKLT,< -0.25
3,RGSWLPPK,< -0.25
4,RGTAQKG,< -0.25
5,RGTDVRGPSVVLWIRLNLRT,< -0.25
6,RGTGDAYLHRRHYIKLAWPP,< -0.25
7,RGTKTG,< -0.25
8,RGTPHIFMQSKVSNDPEDDL,< -0.25
9,RGTT,< -0.25
10,RGTTSSVTYHRLCVWAVRTS,< -0.25
11,RGVETGCVREG,< -0.25
12,RGVFYGEGNQKCIRRARS,< -0.25
13,RGVGLN,< -0.25
14,RGVIYGVKRSGVFKFLNP,< -0.25
15,RGVNAG,< -0.25
16,RGVRPETFETAKIKQWKGPR,< -0.25
17,RGWGKRQKPYGLNCSRVGTR,< -0.25
18,RGWSGTHGHSGGLQATHSHI,< -0.25
19,RGYRRSFHKRIGTGDEMCTV,< -0.25
